Results deposited as PubChem BioAssay AID1259308 (NCATS, 2017).
The whole screen tested about 59,000 reagents; this is an unselected part. Over the whole deposit, about 1,510 (2.6%) were called active. 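Calls use total luciferase alone and ignore viability, so some active siRNAs may act by altering cell number.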 Reagents against one gene are numbered here. Further read-outs or replicates are left out here.

- Aim: 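Candidate targets for better recombinant protein yield in mammalian cells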 (primary screen)
- System: human HEK293 embryonic kidney cells stably expressing firefly luciferase (HEK-CMV-Luc2-Hygro)
- Reagents: single siRNA against human genes, 0.8 pmol siRNA per well
- Duration: 72 h
- Detection: 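Luciferase light (ONE-Glo) measured on one replicate plate set and viability (CellTiter-Glo) on the other, scaled to a negative control siRNA, with robust z-scores and luciferase per cell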
- Reading the numbers: total luciferase, z-score and total luciferase, % of control: higher = more reporter protein produced
- Call rule: 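An siRNA counts as active if its total luciferase robust z-score exceeds 3; genes with two or more such siRNAs out of three were retested with fresh siRNAs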
- Meaning of the calls: active = raised luciferase; inactive = no rise

What did the screen give for ASF1A (GeneID 25842) #1?
total luciferase, z-score: 0.689; total luciferase, % of control: 95.6; Outcome: inactive

For ASF1A (GeneID 25842) #2, what was measured?
total luciferase, z-score: 6.03; total luciferase, % of control: 202; Outcome: active

Which result is listed for ASF1A (GeneID 25842) #3?
total luciferase, z-score: 2.48; total luciferase, % of control: 131; Outcome: inactive

For RBM43 (GeneID 375287) #1, how do the results read?
total luciferase, z-score: -0.433; total luciferase, % of control: 73.3; Outcome: inactive

With RBM43 (GeneID 375287) #2, what does the deposit list?
total luciferase, z-score: 0.558; total luciferase, % of control: 93; Outcome: inactive

With RBM43 (GeneID 375287) #3, what was measured?
total luciferase, z-score: 0.576; total luciferase, % of control: 93.3; Outcome: inactive

With OR4K14 (GeneID 122740) #1, what does the deposit list?
total luciferase, z-score: -0.265; total luciferase, % of control: 76.6; Outcome: inactive

For OR4K14 (GeneID 122740) #2, what was measured?
total luciferase, z-score: 0.579; total luciferase, % of control: 93.4; Outcome: inactive

What did the screen give for OR4K14 (GeneID 122740) #3?
total luciferase, z-score: 1.07; total luciferase, % of control: 103; Outcome: inactive

With PCDHGC5 (GeneID 56097) #1, what was measured?
total luciferase, z-score: -0.19; total luciferase, % of control: 78.1; Outcome: inactive

What did the screen give for PCDHGC5 (GeneID 56097) #2?
total luciferase, z-score: -0.193; total luciferase, % of control: 78; Outcome: inactive

What did the screen give for PCDHGC5 (GeneID 56097) #3?
total luciferase, z-score: -0.223; total luciferase, % of control: 77.5; Outcome: inactive

What is on record for DHX33 (GeneID 56919) #1?
total luciferase, z-score: -0.967; total luciferase, % of control: 62.6; Outcome: inactive

What did the screen give for DHX33 (GeneID 56919) #2?
total luciferase, z-score: 0.228; total luciferase, % of control: 86.4; Outcome: inactive

What is on record for DHX33 (GeneID 56919) #3?
total luciferase, z-score: 0.474; total luciferase, % of control: 91.3; Outcome: inactive

How did the screen score TMC8 (GeneID 147138) #1?
total luciferase, z-score: 0.05; total luciferase, % of control: 82.9; Outcome: inactive

With TMC8 (GeneID 147138) #2, how do the results read?
total luciferase, z-score: 0.366; total luciferase, % of control: 89.2; Outcome: inactive

How did the screen score TMC8 (GeneID 147138) #3?
total luciferase, z-score: -1.12; total luciferase, % of control: 59.5; Outcome: inactive

For EIF2B3 (GeneID 8891) #1, what was measured?
total luciferase, z-score: -0.282; total luciferase, % of control: 76.3; Outcome: inactive

What did the screen give for EIF2B3 (GeneID 8891) #2?
total luciferase, z-score: 0.793; total luciferase, % of control: 97.7; Outcome: inactive

What is on record for EIF2B3 (GeneID 8891) #3?
total luciferase, z-score: -1.46; total luciferase, % of control: 52.8; Outcome: inactive

What did the screen give for NPY (GeneID 4852) #1?
total luciferase, z-score: 0.196; total luciferase, % of control: 85.8; Outcome: inactive

Which result is listed for NPY (GeneID 4852) #2?
total luciferase, z-score: 0.0391; total luciferase, % of control: 82.7; Outcome: inactive

For NPY (GeneID 4852) #3, what was measured?
total luciferase, z-score: 0.158; total luciferase, % of control: 85; Outcome: inactive

What did the screen give for DRD2 (GeneID 1813) #1?
total luciferase, z-score: 0.713; total luciferase, % of control: 96.1; Outcome: inactive

For DRD2 (GeneID 1813) #2, what was measured?
total luciferase, z-score: -0.397; total luciferase, % of control: 74; Outcome: inactive

What did the screen give for DRD2 (GeneID 1813) #3?
total luciferase, z-score: -0.949; total luciferase, % of control: 63; Outcome: inactive

For UGT2A3 (GeneID 79799) #1, what does the deposit list?
total luciferase, z-score: 0.519; total luciferase, % of control: 92.2; Outcome: inactive

For UGT2A3 (GeneID 79799) #2, what does the deposit list?
total luciferase, z-score: 0.728; total luciferase, % of control: 96.4; Outcome: inactive

For UGT2A3 (GeneID 79799) #3, what was measured?
total luciferase, z-score: 0.658; total luciferase, % of control: 95; Outcome: inactive

For KNSTRN (GeneID 90417) #1, how do the results read?
total luciferase, z-score: 0.42; total luciferase, % of control: 90.2; Outcome: inactive

For KNSTRN (GeneID 90417) #2, what does the deposit list?
total luciferase, z-score: 0.677; total luciferase, % of control: 95.3; Outcome: inactive

What did the screen give for KNSTRN (GeneID 90417) #3?
total luciferase, z-score: -0.642; total luciferase, % of control: 69.1; Outcome: inactive

Sorted by “total luciferase, z-score” (high to low): some entries from above.
ASF1A (GeneID 25842) #2 | total luciferase, z-score = 6.03; total luciferase, % of control = 202; Outcome = active
ASF1A (GeneID 25842) #3 | total luciferase, z-score = 2.48; total luciferase, % of control = 131; Outcome = inactive
ASF1A (GeneID 25842) #1 | total luciferase, z-score = 0.689; total luciferase, % of control = 95.6; Outcome = inactive
RBM43 (GeneID 375287) #1 | total luciferase, z-score = -0.433; total luciferase, % of control = 73.3; Outcome = inactive
